Source: publication doi:10.1101/2020.07.20.211441
Where two headings read alike, the source gives them in different places. Results are given in words; binding and its absence hold for the method and conditions named. Binding seen in cells or lysates may run through a third protein. Some results given as binding are weak or reduced against the parent protein; the word gives no strength. Sequences can lack the tags named with a protein. Blank lines part the entries; values can stand above or below the molecule they belong to.

Chains of the proteins cited; added tags and fusions are not shown.
UniProt Q99KP6: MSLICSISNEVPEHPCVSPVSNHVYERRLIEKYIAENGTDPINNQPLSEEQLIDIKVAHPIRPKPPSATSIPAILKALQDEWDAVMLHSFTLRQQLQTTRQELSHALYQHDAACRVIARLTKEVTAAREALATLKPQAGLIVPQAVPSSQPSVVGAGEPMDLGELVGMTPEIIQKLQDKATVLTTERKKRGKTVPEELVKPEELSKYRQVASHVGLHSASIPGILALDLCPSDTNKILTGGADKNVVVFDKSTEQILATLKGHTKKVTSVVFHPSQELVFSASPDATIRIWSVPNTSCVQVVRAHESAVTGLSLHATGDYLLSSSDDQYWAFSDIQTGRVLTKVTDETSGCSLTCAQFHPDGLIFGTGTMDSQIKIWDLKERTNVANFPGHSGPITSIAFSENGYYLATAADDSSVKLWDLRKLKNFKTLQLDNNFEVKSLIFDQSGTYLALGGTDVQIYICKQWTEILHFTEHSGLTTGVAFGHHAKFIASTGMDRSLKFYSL
UniProt Q64267: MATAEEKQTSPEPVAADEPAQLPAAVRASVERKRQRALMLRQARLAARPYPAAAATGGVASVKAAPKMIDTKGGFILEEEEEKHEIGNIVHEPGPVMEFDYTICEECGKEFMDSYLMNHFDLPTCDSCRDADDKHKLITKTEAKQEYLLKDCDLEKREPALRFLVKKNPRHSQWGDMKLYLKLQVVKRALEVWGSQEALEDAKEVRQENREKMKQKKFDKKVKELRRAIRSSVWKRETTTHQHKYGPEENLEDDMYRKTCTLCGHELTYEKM

Tests used:
Assay in all cases: pull-down
[1] = biological target: T1, XPA-binding protein (XAB)-2, biotin-tagged knock-in (mouse) (UniProt Q9DCD2)
T1 sequence (chain, biotin on the Avitag (by the BirA ligase in vivo)): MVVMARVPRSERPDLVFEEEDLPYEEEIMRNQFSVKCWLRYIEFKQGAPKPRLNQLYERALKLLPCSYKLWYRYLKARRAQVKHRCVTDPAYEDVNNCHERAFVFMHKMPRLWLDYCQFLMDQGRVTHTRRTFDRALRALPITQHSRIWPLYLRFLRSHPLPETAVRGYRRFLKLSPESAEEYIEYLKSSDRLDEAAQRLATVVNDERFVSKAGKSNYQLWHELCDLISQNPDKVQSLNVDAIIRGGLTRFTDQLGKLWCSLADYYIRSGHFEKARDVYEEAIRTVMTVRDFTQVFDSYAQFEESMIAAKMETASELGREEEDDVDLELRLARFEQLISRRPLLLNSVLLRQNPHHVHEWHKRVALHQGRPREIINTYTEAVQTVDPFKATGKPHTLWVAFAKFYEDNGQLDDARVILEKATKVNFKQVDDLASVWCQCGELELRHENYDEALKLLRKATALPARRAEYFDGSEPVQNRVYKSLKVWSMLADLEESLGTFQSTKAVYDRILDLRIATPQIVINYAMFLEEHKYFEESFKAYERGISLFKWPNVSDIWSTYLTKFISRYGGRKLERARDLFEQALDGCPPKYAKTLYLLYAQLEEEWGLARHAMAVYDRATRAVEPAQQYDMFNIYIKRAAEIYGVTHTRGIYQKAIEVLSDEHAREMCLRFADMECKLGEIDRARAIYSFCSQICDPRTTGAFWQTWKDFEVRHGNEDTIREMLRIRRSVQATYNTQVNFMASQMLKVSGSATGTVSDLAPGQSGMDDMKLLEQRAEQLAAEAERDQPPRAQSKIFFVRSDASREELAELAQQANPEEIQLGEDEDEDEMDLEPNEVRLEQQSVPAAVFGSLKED

[2] = biological target: T1, XPA-binding protein (XAB)-2, biotin-tagged knock-in (mouse); remark: listed apart in the source
[3] = biological target: T1, XPA-binding protein (XAB)-2, biotin-tagged knock-in (mouse); remark: listed apart in the source
[4] = biological target: T1, XPA-binding protein (XAB)-2, biotin-tagged knock-in (mouse); remark: listed apart in the source

binding [1]: binds
binding [2]: binds
binding [3]: binds
Molecule: pre-mRNA-processing factor 19 (from UniProt Q99KP6 1-504)

binding [1]: binds
Molecule: xeroderma pigmentosum, complementation group A protein (from UniProt Q64267 1-272)

binding [4]: binds
binding [3]: binds
B1: BCAS2 (protein, UniProt Q9D287 1-225)
chain: MAGTGLVAGEVVVDALPYFDQGYEAPGVREAAAALVEEETRRYRPTKNYLSYLTAPDYSAFETDIMRNEFERLAARQPIELLSMKRYELPAPSSGQKNDITAWQECVNNSMAQLEHQAVRIENLELMSQHGCNAWKVYNENLVHMIEHAQKELQKLRKHIQDLNWQRKNMQLTAGSKLREMESNWVSLVSKNYEIERTIVQLENEIYQIKQQHGEANKENIRQDF

binding [4]: binds
B2: ERCC1-XPF endonuclease (complex, UniProt Q9QZD4 1-917; P07903 1-298)
chain 1: MEPGLSGERRSMAPLLEYERQQVLELLDSDGLVVCARGLGTDRLLYHFLRLHCHPACLVLVLNTQPAEEEYFINQLKIEGVEHLPRRVTNEIASNSRYEVYTQGGIIFATSRILVVDFLTGRIPSDLITGILVYRAHRIIESCQEAFILRLFRQKNKRGFIKAFTDNAVAFDTGFCHVERVMRNLFVRKLYLWPRFHVAVNSFLEQHKPEVVEIHVSMTPAMLAIQTAILDILNACLKELKCHNPSLEVEDLSLENALGKPFDKTIRHYLDPLWHQLGAKTKSLVQDLKILRTLLQYLSQYDCVTFLNLLESLRATEKVFGQNSGWLFLDASTSMFVNARARVYRVPDVKLNKKAKTSEKTSSPEVQETKKELVLESNPKWEALTDVLKEIEAENKESEALGGPGRVLICASDDRTCCQLRDYLSAGAETFLLRLYRKTFEKDGKAEEVWVNVRKGDGPKRTTKSDKRPKAAPNKERASAKRGAPLKRKKQELTLTQVLGSAEEPPEDKALEEDLCRQTSSSPEGCGVEIKRESFDLNVSSDAAYGILKEPLTIIHPLLGCSDPYALTRVLHEVEPRYVVLYDAELTFVRQLEIYRASRPGKPLRVYFLIYGGSTEEQRYLTALRKEKEAFEKLIREKASMVVPEEREGRDETNLDLARGSAALDAPTDTRKAGGQEQNGTQSSIVVDMREFRSELPSLIHRRGIDIEPVTLEVGDYILTPELCVERKSVSDLIGSLHSGRLYSQCLAMSRYYRRPVLLIEFDPSKPFSLAPRGAFFQEMSSSDVSSKLTLLTLHFPRLRLLWCPSPHATAELFEELKQNKPQPDAATAMAITADSETLPESDRYNPGPQDFVLKMPGVNAKNCRSLMNQVKNIAELATLSLERLTTILGHSGNAKQLHDFLHTAYADLVSKGRVRK
chain 2: MDPGKDEESRPQPSGPPTRRKFVIPLEEEEVPCAGVKPLFRSSRNPTIPATSAHVAPQTYAEYAITQPPGGAGATVPTGSEPAAGENPSQTLKTGAKSNSIIVSPRQRGNPVLKFVRNVPWEFGEVIPDYVLGQSTCALFLSLRYHNLHPDYIHERLQSLGKNFALRVLLVQVDVKDPQQALKELAKMCILADCTLVLAWSAEEAGRYLETYKAYEQKPADLLMEKLEQNFLSRATECLTTVKSVNKTDSQTLLATFGSLEQLFTASREDLALCPGLGPQKARRLFEVLHEPFLKVPR

binding [4]: binds
B3: Aquarius (protein, UniProt Q8CFQ3 1-1481)
chain: MAAPAQPKKIVAPTVSQINAEFVTQLACKYWAPHIKKKSPFDIKVIEEIYEKEIVKSRFAIRKIMLLEFSQYLENYLWMNYSPEVSSKAYLMSICCMVNEKFRENVPAWETFKKKPDHFPFFFKCILKAALAETDGEFSLHEQTLLLLFLDHCFNSLEVDLIRSQVQQLISLPMWMGLQPARLELELKKTPKLRKFWNLIKKNDEKMDPEAREQAYQERRFLSRLIQKFISVLKSIPLSEPVTMDKVHYCERFIELMIDLEALLPTRRWFNTILDDSHLLVHCYLSSLVHREEDGHLFSQLLDMLKFYTGFEINDQTGNALTENEMTTIHYDRITSLQRAAFAHFPELYDFALSNVAEVDARDSLVKFFGPLSSNTLHQVASYLCLLPTLPKNEDTTFDKEFLLELLVSRHERRISQIQQLNQMPLYPTEKIIWDENIVPTEYYSGEGCLALPKLNLQFLTLHDYLLRNFNLFRLESTYEIRQDIEDSVSRMKPWQSEYGGVVFGGWARMAQPIVAFTVVEVAKPNIGENWPTRVRADVTINLNVRDHIKDEWEGLRKHDVCFLITVRPTKPYGTKFDRRRPFIEQVGLVYVRGCEIQGMLDDKGRVIEDGPEPRPNLRGESRTFRVFLDPNQYQQDMTNTIQNGAEDVYDTFNVIMRRKPKENNFKAVLETIRNLMNTDCVVPDWLHDIILGYGDPSSAHYSKMPNQIATLDFNDTFLSIEHLKASFPGHNVKVTVSDPALQIPPFRITFPVRSGKGKKRKDADGEEDDTEEAKTLIVEPHVIPNRGPYPYNQPKRNTIQFTHTQIEAIRAGMQPGLTMVVGPPGTGKTDVAVQIISNIYHNFPEQRTLIVTHSNQALNQLFEKIMALDIDERHLLRLGHGEEELETEKDFSRYGRVNYVLARRIELLEEVKRLQKSLGVPGDASYTCETAGYFFLYQVMSRWEEYMSRVKNSGTACPDAAPDAAQVATFFPFHEYFANAPQPIFKGRSYEEDMEIAEGCFRHIKKIFTQLEEFRASELLRSGLDRSKYLLVKEAKIIAMTCTHAALKRHDLVKLGFKYDNILMEEAAQILEIETFIPLLLQNPQDGFSRLKRWIMIGDHHQLPPVIKNMAFQKYSNMEQSLFTRFVRVGVPTVDLDAQGRARASLCNLYNWRYKNLGNLPHVQLLPEFSTANAGLLYDFQLINVEDFQGVGESEPNPYFYQNLGEAEYVVALFMYMCLLGYPADKISILTTYNGQKHLIRDIINRRCGNNPLIGRPNKVTTVDRFQGQQNDYILLSLVRTRAVGHLRDVRRLVVAMSRARLGLYIFARVSLFQNCFELTPAFSQLTARPLHLHIIPTEPFPTSRKNGERPPHEVQVIKNMPQMANFVYNMYMHLIQTTHHYHQTFLQLPPAMVEEGEEGQSQETEMEAEEETVSAQGNLTPSPADASLSQETPAAQPDCSSQTEDTSAPCDIATAAEPVSAAAEAATPQDAESVPTETE

binding [3]: binds
B4: SNRP40 (protein, UniProt Q6PE01 1-358)
chain: MIEQQKRKGPELPLVPVKRPRHELLLGAAGAGPGAGPQQATPGALLQAGPPRCSSLQAPIMLLSGHEGEVYCCKFHPNGSTLASAGFDRLILLWNVYGDCDNYATLKGHSGAVMELHYNTDGSMLFSASTDKTVAVWDSETGERVKRLKGHTSFVNSCYPARRGPQLVCTGSDDGTVKLWDIRKKAAVQTFQNTYQVLAVTFNDTSDQIISGGIDNDIKVWDLRQNKLTYTMRGHADSVTGLSLSSEGSYLLSNAMDNTVRVWDVRPFAPKERCVKIFQGNVHNFEKNLLRCSWSPDGSKIAAGSADRFVYVWDTTSRRVLYKLPGHAGSINEVAFHPDEPIILSASSDKRLYMGEIQ

binding [4]: binds
B5: XPG endonuclease (protein, UniProt P35689 1-1170)
chain: MGVQGLWKLLECSGHRVSPEALEGKVLAVDISIWLNQALKGVRDSHGNVIENAHLLTLFHRLCKLLFFRIRPIFVFDGDAPLLKKQTLAKRRQRKDSASIDSRKTTEKLLKTFLKRQALKTAFRSSRHEAPPSLTQVQRQDDIYVLPPLPEEEKHSSEEEDEKQWQARMDQKQALQEEFFHNPQAIDIESEDFSSLPPEVKHEILTDMKEFTKRRRTLFEAMPEESNDFSQYQLKGLLKKNYLNQHIENVQKEMNQQHSGQIQRQYQDEGGFLKEVESRRVVSEDTSHYILIKGIQGKKVMDVDSESLPSSSNVHSVSSNLKSSPHEKVKPEREPEAAPPSPRTLLAIQAAMLGSSSEDEPESREGRQSKERNSGATADAGSISPRTCAAIQKALDDDNDEKVSGSSDDLAEKMLLGSGLEQEEHADETAERGGGVPFDTAPLTPSVTEVKECVTSGSSANGQTDSAHSFTTASHRCDTPKETVSLARAVKEASQISSECEVEGRPAALSPAFIGTPSSHVSGVLSEREPTLAPPTTRTHSDQGIDIHPEDPELQNGLYPLETKCNSSRLSSDDETEGGQNPAPKACSTVHVPAEAMSNLENALPSNAEERGDFQETIQLREVPEAAARELISAPKPMGPMEMESEESESDGSFIEVQSVVSNSELQTESSEASTHLSEKDAEEPRETLEEGTSRDTECLLQDSSDIEAMEGHREADIDAEDMPNEWQDINLEELDALESNLLAEQNSLKAQKQQQDRIAASVTGQMFLESQELLRLFGVPYIQAPMEAEAQCAMLDLTDQTSGTITDDSDIWLFGARHVYKNFFNKNKFVEYYQYVDFYSQLGLDRNKLINLAYLLGSDYTEGIPTVGCVTAMEILNEFPGRGLDPLLKFSEWWHEAQNNKKVAENPYDTKVKKKLRKLQLTPGFPNPAVADAYLRPVVDDSRGSFLWGKPDVDKISTFCQRYFGWNRMKTDESLYPVLKHLNAHQTQLRIDSFFRLAQQEKQDAKLIKSHRLNRAVTCILRKEREEKAPELTKVTEALDDAKGKTQKRELPYKKETSVPKRRRPSGNGGFLGDPYCSESPQESSCEDGEGSSVMSARQRSAAESSKISCSDVPDLVRDPPHGRQGCVSTSSSSEDDEDKAKTVLVTARPVFGKKKLKLKSMKRRKKKT
